Measurements taken from patent publication US10350164B2, “Process for preparing a dry powder formulation comprising an anticholinergic, a corticosteroid and a beta-adrenergic” (CHIESI FARMACEUTICI S.p.A., priority 2017, dated 2019).
Counter-ions that a name gives are not always drawn.

Assay: Uniformity of distribution of the active ingredients in the blend by HPLC
Type: physicochemical
Experimental: It is usually determined according to known methods, for instance by taking samples from different parts of the powder and testing the component by HPLC or other equivalent analytical methods.
The uniformity of distribution of the active ingredients was evaluated by withdrawing 12 samples from different parts of the blend and evaluated by HPLC.

SMILES: COc1ccc(CC(C)NCC(O)c2ccc(O)c(NC=O)c2)cc1 (centres unmarked) [FF, formoterol fumarate dihydrate]
- Uniformity of distribution (Example 3 formulation (FF 6 μg/BDP 100 μg/GB 12.5 μg per 10 mg carrier), 12 samples, mean value±RSD): 99.4 (±1.4)
- Uniformity of distribution (Example 4 formulation (FF 6 μg/BDP 100 μg/GB 25 μg per 10 mg carrier)): 99.6 (±1.6)
